Test results taken from PMC10564737, “Structure-based design of a phosphotyrosine-masked covalent ligand targeting the E3 ligase SOCS2” (Nature Communications, 2023).
Where “and” joins values, the source holds several entries; their conditions need not be identical. Equal values may be shown once. Further values from the same series stand in other lists.

Amino acid sequences for entries named in this document (tags omitted). Residues count along the entry.
UniProt O14508, 32-198: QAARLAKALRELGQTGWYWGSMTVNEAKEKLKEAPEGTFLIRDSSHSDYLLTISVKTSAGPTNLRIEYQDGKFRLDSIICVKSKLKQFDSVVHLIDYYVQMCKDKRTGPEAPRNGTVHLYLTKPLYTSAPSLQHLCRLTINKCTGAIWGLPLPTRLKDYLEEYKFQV

Biological target: T1, SBC2 (Homo sapiens, UniProt O14508)
T1 construct: SOCS2 (amino acids 32–198); His6 (N, cleaved yes); made in house; host or cells: E. coli BL21(DE3)
Test: Covalent fluorescence polarization (FP) probe displacement assay
Assay type: binding
Text: With the specific covalent modification of Cys111 established, we decided to fully characterize MN551 as a covalent SOCS2 inhibitor. […] (Fig. 2g, h, Supplementary Fig. 9). Due to the covalent nature of the competing inhibitor, a time-dependent reduction in the fraction of protein-bound probe is observed. […] This value illustrates reasonable specificity for a covalent inhibitor, with nonetheless scope for future optimization. In addition to characterizing the kinetic covalency parameters, we have also assessed the stability of the MN551 by monitoring its reactivity (half-life >70 min) with reduced glutathione (GSH) (Supplementary Fig. 10)[35].
To monitor the SBC2-ligand binding kinetics we designed a fluorescein-labeled small-molecule probe - compound 26. The fluorescence polarization (anisotropy) of a threefold serial dilution of 50 µM SBC2 in 10 nM of the probe in 100 mM HEPES pH 7.5, 50 mM NaCl, 0.5 mM TCEP, 2% DMSO was measured to determine the KL (Supplementary Fig. 9A) (BMG Labtech PHERAstar – firmware v1.33). Protein titration and the curves were fitted using GraphPad Prism 9, using one-site fitting models to determine the probe binding constant, KL. Samples were run in triplicate in 384 well plates, using a total volume per well of 16 μL. The bound fraction of the probe is measure using the equation:1 Fb=Af−A/Af−Ab Where,
A time-dependent reduction in probe anisotropy were measured for a 2-fold serial dilution of […] compound MN551 in 10 nM probe +300 μM SBC2. To determine the initial reversible binding affinity, the initial bound fraction of the probe at time = 0, Fbo (the y-intercept in Fb v/s Time plot, Supplementary Fig. 9B) was plotted against MN551 concentration, and the obtained IC50 is then converted to Ki (Supplementary Fig. 9C)[17]. The slope from Fb versus time graph when divided by Fbo gives rate of covalency, kobs. A plot of kobs v/s MN551 concentration using Michaelis–Menten model of GraphPad Prism 9, provides the parameters kinact (maximum potential rate of inactivation) and KI (concentration of MN551 at which kobs = kinact/2) (Supplementary Fig. 9D, E).
The observed first-order rate constant, kobs is related to KI and kinact by the equation:2 kobs=kinactI/KI+I
At [I]«[KI] the above equation is converted to3 […]
The slope from the plot of kobs against concentration of MN551 gives us the covalent efficiency parameter kinact/KI (Supp Fig. 9F)[30],[33].

[1] = MN551 48.4003 nM; Cycle 9 (40 min)
[2] = MN551 48.4003 nM; Cycle 10 (45 min)
[3] = MN551 48.4003 nM; Cycle 11 (50 min)
[4] = MN551 48.4003 nM; Cycle 12 (55 min); n=1
[5] = MN551 48.4003 nM; Cycle 13 (60 min); n=1
[6] = MN551 48.4003 nM; Cycle 14 (65 min); n=1
[7] = MN551 48.4003 nM; Cycle 15 (70 min); n=1
[8] = MN551 48.4003 nM; Cycle 16 (75 min); n=1
[9] = MN551 48.8281 nM, Cycle 8 (35 min)
[10] = MN551 48.8281 nM, Cycle 9 (40 min)
[11] = MN551 48.8281 nM, Cycle 10 (45 min)
[12] = MN551 48.8281 nM; Cycle 6 (25 min)
[13] = MN551 48.8281 nM; Cycle 7 (30 min)
[14] = MN551 48.8281 nM; Cycle 8 (35 min)
[15] = MN551 48.8281 nM; Cycle 9 (40 min)
[16] = MN551 48.8281 nM; Cycle 10 (45 min)
[17] = MN551 48.8281 nM; Cycle 12 (55 min); n=1
[18] = MN551 48.8281 nM; Cycle 13 (60 min); n=1
[19] = MN551 48.8281 nM; Cycle 14 (65 min); n=1
[20] = MN551 48.8281 nM; Cycle 15 (70 min); n=1
[21] = MN551 48.8281 nM; Cycle 16 (75 min); n=1
[22] = MN551 67.7604 nM, Cycle 8 (35 min)
[23] = MN551 67.7604 nM, Cycle 9 (40 min)
[24] = MN551 67.7604 nM, Cycle 10 (45 min)
[25] = MN551 67.7604 nM, Cycle 11 (50 min)
[26] = MN551 67.7604 nM, Cycle 15 (70 min), n=1

In the case of `O=C(CCl)Nc1cccc(CNC(=O)[C@H](Cc2ccc(OP(=O)(O)O)cc2)NC(=O)Cc2ccc(F)cc2)c1` [MN551], the Fb (MN551 48.4003 nM; Cycle 8 (35 min)) is reported as 0.9933 and 1.043 and 1.113 and 1.04 and 1 and 1.032, the Anisotropy [1] is reported as 280 and 278 and 278.6 and the “Anisotropy data 485,520,520” value [1] is reported as 268.1 and 267.5 and 268.9. The Fb [1] was 0.999 and 1.03 and 1.1 and 1.0407 and 0.983 and 1.0242, the Anisotropy [2] was 280.7 and 278.3 and 278.1 and the “Anisotropy data 485,520,520” value [2] was 267.1 and 263.9 and 265.8. For the same molecule, the Fb [2] was 0.9971 and 1.03 and 1.138 and 1.04 and 0.9963 and 1.019, the Anisotropy [3] was 280.5 and 276 and 276.2 and the Fb [3] was 1.047 and 0.9915 and 1.0219. The Anisotropy (MN551 48.4003 nM; Cycle 11 (50 min); n=1) was 265.8 and 265.5 and 266.5, the Anisotropy [4] was 266.6 and 265.4 and 263.4 and the “Anisotropy based on Raw Data (485)” value [4] was 277.3 and 275.9 and 275. The Anisotropy [5] was 264.6 and 263.3 and 264.3, the “Anisotropy based on Raw Data (485)” value [5] was 275 and 274.2 and 275.8 and the Anisotropy [6] was 266 and 262.3 and 263.7. The “Anisotropy based on Raw Data (485)” value [6] was 274.3 and 274.4 and 272.5, the Anisotropy [7] was 263.4 and 262.8 and 262.4 and the “Anisotropy based on Raw Data (485)” value [7] was 274.4 and 274.9 and 273.3. For the same molecule, the Anisotropy [8] was 265 and 262.8 and 263.9, the “Anisotropy based on Raw Data (485)” value [8] was 273.7 and 273.3 and 272.4 and the “Anisotropy data 485,520,520” value (MN551 48.4003 nM; Cycle 19 (90 min); n=1) was 274.9 and 271.3 and 271.4. For the same molecule, the “Anisotropy data 485,520,520” value (MN551 48.4003 nM; Cycle 20 (95 min); n=1) was 273.9 and 272.2 and 268, the Fb (MN551 48.8281 nM, Cycle 7 (30 min)) was 0.8745 and 0.962 and 0.9712 and the “Anisotropy based on Raw Data (485)” value [9] was 280.9 and 279.7 and 278.8. The Fb [9] was 0.8789 and 0.9618 and 0.963, the “Anisotropy based on Raw Data (485)” value [10] was 279.7 and 277.8 and 275.3 and the Fb [10] was 0.8613 and 0.962 and 0.9437. The “Anisotropy based on Raw Data (485)” value [11] was 277 and 277.8 and 275.6, the Fb [11] was 0.8383 and 0.95 and 0.9637 and the “Anisotropy based on Raw Data (485)” value (MN551 48.8281 nM, Cycle 11 (50 min)) was 279.2 and 275.8. For the same molecule, the Anisotropy (MN551 48.8281 nM, Cycle 13 (60 min), n=1) was 278.3 and 279 and 278.7, the Anisotropy (MN551 48.8281 nM, Cycle 14 (65 min), n=1) was 279.2 and 277.8 and 278.5 and the Anisotropy (MN551 48.8281 nM, Cycle 15 (70 min), n=1) was 277.8 and 277 and 276.3. The Anisotropy (MN551 48.8281 nM, Cycle 16 (75 min), n=1) was 275.3 and 276.5, the Anisotropy (MN551 48.8281 nM, Cycle 17 (80 min), n=1) was 275.1 and 275.5 and 275.4 and the “Fb, fraction bound” value (MN551 48.8281 nM; Cycle 3 (10 min)) was 1.017 and 1.016 and 1.036. For the same molecule, the “Fb, fraction bound” value (MN551 48.8281 nM; Cycle 4 (15 min)) was 1.013 and 1.016 and 1.001, the “Fb, fraction bound” value (MN551 48.8281 nM; Cycle 5 (20 min)) was 0.975 and 1.054 and 1.0156 and the “Anisotropy data 485,520,520” value [12] was 273.6 and 274.3 and 276.1. The Fb [12] was 0.9397 and 0.9269 and 0.9409, the “Fb, fraction bound” value [12] was 1.009 and 1.035 and 0.9936 and the “Anisotropy data 485,520,520” value [13] was 273.7 and 271.5 and 275.6. For the same molecule, the Fb [13] was 0.9851 and 0.9229 and 0.9837, the “Fb, fraction bound” value [13] was 1.035 and 1.0159 and 1.041 and the Anisotropy [14] was 281.9 and 283.1 and 281.7. The “Anisotropy data 485,520,520” value [14] was 274.7 and 271.5 and 274.9, the Fb [14] was 0.9767 and 0.9141 and 0.9698 and 1.023 (2×) and 1.02 and the Anisotropy [15] was 279.8 and 281.1 and 281.7. For the same molecule, the “Anisotropy data 485,520,520” value [15] was 274.1 and 268.9 and 274, the Fb [15] was 0.995 and 0.9033 and 0.9671 and 0.9896 and 1.021 and 1.031 and the Anisotropy [16] was 281.1 and 279.9 and 282. The “Anisotropy data 485,520,520” value [16] was 273.6 and 269 and 274.5, the Fb [16] was 1.007 and 0.9151 and 0.9836 and 1.012 and 1.024 and 1.036 and the Anisotropy (MN551 48.8281 nM; Cycle 11 (50 min); n=1) was 271.3 and 267.7 and 270.2. The Anisotropy [17] was 273 and 268.8 and 270.6, the “Anisotropy based on Raw Data (485)” value [17] was 276.8 and 278.8 and 274.9 and the Anisotropy [18] was 269 and 267 and 271.1. For the same molecule, the “Anisotropy based on Raw Data (485)” value [18] was 276.2 and 276.8 and 274.6, the Anisotropy [19] was 270.5 and 265.8 and 271.3 and the “Anisotropy based on Raw Data (485)” value [19] was 275 and 276.5 and 273.8. For the same molecule, the Anisotropy [20] was 270.6 and 267.2 and 269.2, the “Anisotropy based on Raw Data (485)” value [20] was 275.4 and 274.5 and 271.1 and the Anisotropy [21] was 271.6 and 264.4 and 268.2. The “Anisotropy based on Raw Data (485)” value [21] was 276.9 and 275.1 and 272.9, the “Anisotropy data 485,520,520” value (MN551 48.8281 nM; Cycle 19 (90 min); n=1) was 275 and 275.6 and 273.5 and the “Anisotropy data 485,520,520” value (MN551 48.8281 nM; Cycle 20 (95 min); n=1) was 273.5 and 274.5 and 275.2. For the same molecule, the Fb (MN551 67.7604 nM, Cycle 7 (30 min)) was 0.7335 and 0.9246 and 0.8926, the “Anisotropy based on Raw Data (485)” value [22] was 275.9 and 276.5 and 278.9 and the Fb [22] was 0.7357 and 0.8981 and 0.8941. For the same molecule, the “Anisotropy based on Raw Data (485)” value [23] was 276 and 275.7 and 277.3, the Fb [23] was 0.7087 and 0.904 and 0.8635 and the “Anisotropy based on Raw Data (485)” value [24] was 275.2 and 276.3 and 277. The Fb [24] was 0.7338 and 0.9072 and 0.8843, the “Anisotropy based on Raw Data (485)” value [25] was 273.6 and 275.2 and 273.4 and the Fb [25] was 0.7213 and 0.8718 and 0.8974. The Anisotropy (MN551 67.7604 nM, Cycle 13 (60 min), n=1) was 278.7 and 273.6 and 274.5, the Anisotropy (MN551 67.7604 nM, Cycle 14 (65 min), n=1) was 277.8 and 274.6 and 274.7 and the Anisotropy [26] was 275.3 and 274.9 and 272.6. For the same molecule, the “Normalised anisotropy (0 nM MN551 = 1, free probe = 0)” value [26] was 1.025 and 1.003 and 0.9923 and the Anisotropy (MN551 67.7604 nM, Cycle 16 (75 min), n=1) was 276.7 and 272.6 and 270.9.
